Test results: publication PMC5573083, “Structural and Functional Analysis of the Escherichia coli Acid-Sensing Histidine Kinase EvgS” (Journal of Bacteriology, 2017)
These are yes or no findings as the source states them, for the method shown. For part of these data: Sequences can lack the tags named with a protein.

Legend:
[1] = target: EvgS-Cyt (entire cytoplasmic region of the Escherichia coli histidine kinase EvgS, residues 553 to 1193) (Escherichia coli) (UniProt P30855); test: AUC; purified protein dialysed against 50 mM Tris-HCl pH 5.6; OD280 of 1 (printed as 0.1 μM protein); 40,000 rpm, 20°C; 200 scans; analysed with Sedfit; monomer to dimer; both purified
[2] = target: EvgS-Cyt S600I (cytoplasmic domain of EvgS containing the activating S600I mutation in the PAS domain) (Escherichia coli) (UniProt P30855); test: AUC; purified protein dialysed against 50 mM Tris-HCl pH 7; OD280 of 1 (printed as 0.1 μM protein); 40,000 rpm, 20°C; 200 scans; analysed with Sedfit; monomer to dimer; both purified
[3] = target: EvgS-Cyt S600I (cytoplasmic domain of EvgS containing the activating S600I mutation in the PAS domain) (Escherichia coli) (UniProt P30855); test: AUC; purified protein dialysed against 50 mM Tris-HCl pH 5.6; OD280 of 1 (printed as 0.1 μM protein); 40,000 rpm, 20°C; 200 scans; analysed with Sedfit; monomer to dimer; both purified

binding [1] | binding [2] | binding [3] | Binder
no binding (condition: at pH 5.6) | – | – | EvgS-Cyt (entire cytoplasmic region of the Escherichia coli histidine kinase EvgS, residues 553 to 1193) (domain or fragment, UniProt P30855 553-1193, looked up, EvgS sensor histidine kinase, Escherichia coli, cytoplasmic domains comprising amino acid residues 553 to 1193; expected monomer mass printed as 72.3 kDa; Amplified from pBADEvgS and cloned NdeI-HindIII into a modified pET41c in which the GST tag is replaced by a C-terminal His8 tag; By the forward primer a start methionine precedes R553 (ATGCGCTCAGTTCGTCGTCGT); No cleavage of the tag is …) WGFYLLRSVRRRKVIQGDLENQISFRKALSDSLPNPTYVVNWQGNVISHNSAFEHYFTADYYKNAMLPLENSDSPFKDVFSNAHEVTAETKENRTIYTQVFEIDNGIEKRCINHWHTLCNLPASDNAVYICGWQDITETRDLINALEVEKNKAIKATVAKSQFLATMSHEIRTPISSIMGFLELLSGSGLSKEQRVEAISLAYATGQSLLGLIGEILDVDKIESGNYQLQPQWVDIPTLVQNTCHSFGAIAASKSIALSCSSTFPEHYLVKIDPQAFKQVLSNLLSNALKFTTEGAVKITTSLGHIDDNHAVIKMTIMDSGSGLSQEEQQQLFKRYSQTSAGRQQTGSGLGLMICKELIKNMQGDLSLESHPGIGTTFTITIPVEISQQVATVEAKAEQPITLPEKLSILIADDHPTNRLLLKRQLNLLGYDVDEATDGVQALHKVSMQHYDLLITDVNMPNMDGFELTRKLREQNSSLPIWGLTANAQANEREKGLSCGMNLCLFKPLTLDVLKTHLSQLHQVAHIAPQYRHLDIEALKNNTANDLQLMQEILMTFQHETHKDLPAAFQALEAGDNRTFHQCIHRIHGAANILNLQKLINISHQLEITPVSDDSKPEILQLLNSVKEHIAELDQEIAVFC
– | no binding (tested: 0.1 μM) | no binding (tested: 0.1 μM) | EvgS-Cyt S600I (cytoplasmic domain of EvgS containing the activating S600I mutation in the PAS domain) (domain or fragment, UniProt P30855 553-1193) WGFYLLRSVRRRKVIQGDLENQISFRKALSDSLPNPTYVVNWQGNVIIHNSAFEHYFTADYYKNAMLPLENSDSPFKDVFSNAHEVTAETKENRTIYTQVFEIDNGIEKRCINHWHTLCNLPASDNAVYICGWQDITETRDLINALEVEKNKAIKATVAKSQFLATMSHEIRTPISSIMGFLELLSGSGLSKEQRVEAISLAYATGQSLLGLIGEILDVDKIESGNYQLQPQWVDIPTLVQNTCHSFGAIAASKSIALSCSSTFPEHYLVKIDPQAFKQVLSNLLSNALKFTTEGAVKITTSLGHIDDNHAVIKMTIMDSGSGLSQEEQQQLFKRYSQTSAGRQQTGSGLGLMICKELIKNMQGDLSLESHPGIGTTFTITIPVEISQQVATVEAKAEQPITLPEKLSILIADDHPTNRLLLKRQLNLLGYDVDEATDGVQALHKVSMQHYDLLITDVNMPNMDGFELTRKLREQNSSLPIWGLTANAQANEREKGLSCGMNLCLFKPLTLDVLKTHLSQLHQVAHIAPQYRHLDIEALKNNTANDLQLMQEILMTFQHETHKDLPAAFQALEAGDNRTFHQCIHRIHGAANILNLQKLINISHQLEITPVSDDSKPEILQLLNSVKEHIAELDQEIAVFC
